No constants are given. Whether binding was seen depends on the method and setting. Some binding calls cover weakened binding; strength is not graded here.
Columns and labels:
[1] = target: Cynomolgus CD3 on HSC-F cells (cynomolgus) (UniProt Q95LI5); assay: flow cytometry, 100 nM IgG
[2] = target: Human CD3 on CD3+ Jurkat cells (human) (UniProt P07766); assay: flow cytometry, 100 nM IgG
[3] = target: Cynomolgus CD3 on HSC-F cells (cynomolgus) (UniProt Q95LI5); assay: flow cytometry, 100 nM IgG1, pH 7.4
[4] = target: Human CD3 on CD3+ Jurkat cells (human) (UniProt P07766); assay: flow cytometry, 100 nM IgG1, pH 7.4
[5] = target: Cynomolgus CD3 on HSC-F cells (cynomolgus) (UniProt Q95LI5); assay: flow cytometry, Fab titration
[6] = target: Human CD3 on CD3+ Jurkat cells (human) (UniProt P07766); assay: flow cytometry, Fab titration

Sequences of proteins named here, by UniProt entry; tags and fusion partners are left off. Residues count along the entry.
UniProt Q95LI5, residues 22-198: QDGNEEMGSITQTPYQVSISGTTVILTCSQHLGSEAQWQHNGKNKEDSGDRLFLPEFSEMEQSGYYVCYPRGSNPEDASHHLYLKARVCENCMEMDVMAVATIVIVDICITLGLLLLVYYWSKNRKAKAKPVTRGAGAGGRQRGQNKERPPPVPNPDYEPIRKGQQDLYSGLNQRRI
UniProt P07766, residues 23-207: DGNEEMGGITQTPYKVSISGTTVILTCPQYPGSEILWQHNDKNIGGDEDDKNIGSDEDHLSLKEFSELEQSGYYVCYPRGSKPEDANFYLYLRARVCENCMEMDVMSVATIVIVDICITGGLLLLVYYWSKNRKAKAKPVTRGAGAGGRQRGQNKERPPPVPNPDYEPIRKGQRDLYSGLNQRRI

| Binder | binding [1] | binding [2] | binding [3] | binding [4] | binding [5] | binding [6] |
| --- | --- | --- | --- | --- | --- | --- |
| Antibody No. A002 (ADI-50024) IgG1 (antibody, V domains shown) VH: QVQLVQSGAEVKKPGASVKVSCKASGFNIKDYYMHWVRQAPGQRLEWIGWIDLENANTVYDAKFQGRVTITRDTSASTAYMELSSLRSEDTAVYYCARDAYGRYFYDVWGQGTLVTVSS VL: DIVMSQSPDSLAVSLGERATINCKSSQSLLNARTGKNYLAWYQQKPGQPPKLLIYWASTRSSGVPDRFSGSGSGTDFTLTISSLQAEDVAVYYCVQSYFRRTFGGGTKVEIK | binds | binds | binds | binds |  |  |
| Antibody No. V008 (ADI-70325) IgG1 (antibody, V domains shown) VH: QVQLVQSGAEVKKPGASVKVSCKASGFNIKDYYMHWVRQAPGQRLEWIGWIDLENAETVYDAKFQDRVTITRDTSASTAYMELSSLRSEDTAVYYCARDAYGRYFYDVWGQGTLVTVSS VL: DIVMSQSPDSLAVSLGERATINCKSSQSLLNARTGKNYLAWYQQKPGQPPKLLIYWASTRSSGVPDRFSGSGSGTDFTLTISSLQAEDVAVYYCVQSYFRRTFGGGTKVEIK | binds | binds |  |  |  |  |
| Antibody No. V009 (ADI-70326) IgG1 (antibody, V domains shown) VH: QVQLVQSGAEVKKPGASVKVSCKASGFDIKDYYMHWVRQAPGQRLEWIGWIELENADTVYDAKFQGRVTITRDTSASTAYMELSSLRSEDTAVYYCARDAYGRYFYDVWGQGTLVTVSS VL: DIVMSQSPDSLAVSLGERATINCKSSQSLLNARTGKNYLAWYQQKPGQPPKLLIYWASTRSSGVPDRFSGSGSGTDFTLTISSLQAEDVAVYYCVQSYFRRTFGGGTKVEIK | binds | binds | binds | binds |  |  |
| Antibody No. V010 (ADI-70327) IgG1 (antibody, V domains shown) VH: QVQLVQSGAEVKKPGASVKVSCKASGFDIKDYYMHWVRQAPGQRLEWIGWIELENDDTVYDAKFQGRVTITRDTSASTAYMELSSLRSEDTAVYYCARDAYGRYFYDVWGQGTLVTVSS VL: DIVMSQSPDSLAVSLGERATINCKSSQSLLNARTGKNYLAWYQQKPGQPPKLLIYWASTRSSGVPDRFSGSGSGTDFTLTISSLQAEDVAVYYCVQSYFRRTFGGGTKVEIK | binds | binds | binds | binds |  |  |
| Antibody No. V011 (ADI-70328) IgG1 (antibody, V domains shown) VH: QVQLVQSGAEVKKPGASVKVSCKASGFNIDDYYMHWVRQAPGQRLEWIGWIDLENDNTVYDAKFQGRVTITRDTSASTAYMELSSLRSEDTAVYYCARDAYGRYFYDVWGQGTLVTVSS VL: DIVMSQSPDSLAVSLGERATINCKSSQSLLNARTGKNYLAWYQQKPGQPPKLLIYWASTRSSGVPDRFSGSGSGTDFTLTISSLQAEDVAVYYCVQSYFRRTFGGGTKVEIK | binds | binds |  |  |  |  |
| Antibody No. V012 (ADI-70329) IgG1 (antibody, V domains shown) VH: QVQLVQSGAEVKKPGASVKVSCKASGFNDKDYYMHWVRQAPGQRLEWIGWIDLENAETVYDAKFQDRVTITRDTSASTAYMELSSLRSEDTAVYYCARDAYGRYFYDVWGQGTLVTVSS VL: DIVMSQSPDSLAVSLGERATINCKSSQSLLNARTGKNYLAWYQQKPGQPPKLLIYWASTRSSGVPDRFSGSGSGTDFTLTISSLQAEDVAVYYCVQSYFRRTFGGGTKVEIK | binds | binds |  |  |  |  |
| Antibody No. V013 (ADI-70330) IgG1 (antibody, V domains shown) VH: QVQLVQSGAEVKKPGASVKVSCKASGFNIDDYYMHWVRQAPGQRLEWIGWIDLENANTVDDAKFQGRVTITRDTSASTAYMELSSLRSEDTAVYYCARDAYGRYFYDVWGQGTLVTVSS VL: DIVMSQSPDSLAVSLGERATINCKSSQSLLNARTGKNYLAWYQQKPGQPPKLLIYWASTRSSGVPDRFSGSGSGTDFTLTISSLQAEDVAVYYCVQSYFRRTFGGGTKVEIK | binds | binds | binds | binds |  |  |
| Antibody No. A002 (ADI-50024) Fab (Fab, V domains shown) VH: QVQLVQSGAEVKKPGASVKVSCKASGFNIKDYYMHWVRQAPGQRLEWIGWIDLENANTVYDAKFQGRVTITRDTSASTAYMELSSLRSEDTAVYYCARDAYGRYFYDVWGQGTLVTVSS VL: DIVMSQSPDSLAVSLGERATINCKSSQSLLNARTGKNYLAWYQQKPGQPPKLLIYWASTRSSGVPDRFSGSGSGTDFTLTISSLQAEDVAVYYCVQSYFRRTFGGGTKVEIK |  |  |  |  | binds | binds |
| Antibody No. V008 (ADI-70325) Fab (Fab, V domains shown) VH: QVQLVQSGAEVKKPGASVKVSCKASGFNIKDYYMHWVRQAPGQRLEWIGWIDLENAETVYDAKFQDRVTITRDTSASTAYMELSSLRSEDTAVYYCARDAYGRYFYDVWGQGTLVTVSS VL: DIVMSQSPDSLAVSLGERATINCKSSQSLLNARTGKNYLAWYQQKPGQPPKLLIYWASTRSSGVPDRFSGSGSGTDFTLTISSLQAEDVAVYYCVQSYFRRTFGGGTKVEIK |  |  |  |  | binds | binds |
| Antibody No. V009 (ADI-70326) Fab (Fab, V domains shown) VH: QVQLVQSGAEVKKPGASVKVSCKASGFDIKDYYMHWVRQAPGQRLEWIGWIELENADTVYDAKFQGRVTITRDTSASTAYMELSSLRSEDTAVYYCARDAYGRYFYDVWGQGTLVTVSS VL: DIVMSQSPDSLAVSLGERATINCKSSQSLLNARTGKNYLAWYQQKPGQPPKLLIYWASTRSSGVPDRFSGSGSGTDFTLTISSLQAEDVAVYYCVQSYFRRTFGGGTKVEIK |  |  |  |  | binds | binds |
| Antibody No. V010 (ADI-70327) Fab (Fab, V domains shown) VH: QVQLVQSGAEVKKPGASVKVSCKASGFDIKDYYMHWVRQAPGQRLEWIGWIELENDDTVYDAKFQGRVTITRDTSASTAYMELSSLRSEDTAVYYCARDAYGRYFYDVWGQGTLVTVSS VL: DIVMSQSPDSLAVSLGERATINCKSSQSLLNARTGKNYLAWYQQKPGQPPKLLIYWASTRSSGVPDRFSGSGSGTDFTLTISSLQAEDVAVYYCVQSYFRRTFGGGTKVEIK |  |  |  |  | binds | binds |
| Antibody No. V011 (ADI-70328) Fab (Fab, V domains shown) VH: QVQLVQSGAEVKKPGASVKVSCKASGFNIDDYYMHWVRQAPGQRLEWIGWIDLENDNTVYDAKFQGRVTITRDTSASTAYMELSSLRSEDTAVYYCARDAYGRYFYDVWGQGTLVTVSS VL: DIVMSQSPDSLAVSLGERATINCKSSQSLLNARTGKNYLAWYQQKPGQPPKLLIYWASTRSSGVPDRFSGSGSGTDFTLTISSLQAEDVAVYYCVQSYFRRTFGGGTKVEIK |  |  |  |  | binds | binds |
| Antibody No. V012 (ADI-70329) Fab (Fab, V domains shown) VH: QVQLVQSGAEVKKPGASVKVSCKASGFNDKDYYMHWVRQAPGQRLEWIGWIDLENAETVYDAKFQDRVTITRDTSASTAYMELSSLRSEDTAVYYCARDAYGRYFYDVWGQGTLVTVSS VL: DIVMSQSPDSLAVSLGERATINCKSSQSLLNARTGKNYLAWYQQKPGQPPKLLIYWASTRSSGVPDRFSGSGSGTDFTLTISSLQAEDVAVYYCVQSYFRRTFGGGTKVEIK |  |  |  |  | binds | binds |
| Antibody No. A004 (ADI-26920) IgG1 (antibody, V domains shown) VH: QVQLVQSGAEVKKPGASVKVSCKASGFNIKDYYMHWVRQAPGQRLEWMGWIDLENANTIYDAKFQGRVTITRDTSASTAYMELSSLRSEDTAVYYCGRDAYGRYFYDVWGQGTLVTVSS VL: DIVMTQSPDSLAVSLGERATINCKSSQSLLNARTGKNYLAWYQQKPGQPPKLLIYWASTRESGVPDRFSGSGSGTDFTLTISSLQAEDVAVYYCKQSYSLRTFGGGTKVEIK |  |  | binds | binds |  |  |
| Antibody No. A005 (ADI-26921) IgG1 (antibody, V domains shown) VH: QVQLVQSGAEVKKPGASVKVSCKASGFNIKDYYMHWVRQAPGQRLEWMGWIDLEEGNTIYDAKFQGRVTITRDTSASTAYMELSSLRSEDTAVYYCARDAYGRYFYDVWGQGTLVTVSS VL: DIVMTQSPDSLAVSLGERATINCKSSQSLLNARTGKNYLAWYQQKPGQPPKLLIYWASTRESGVPDRFSGSGSGTDFTLTISSLQAEDVAVYYCKQSYSLRTFGGGTKVEIK |  |  | binds | binds |  |  |
| Antibody No. V016 (ADI-76359) IgG1 (antibody, V domains shown) VH: QVQLVQSGAEVKKPGASVKVSCKASGFDIKDYYMHWVRQAPGQRLEWMGWIDLENANTIYDAKFQGRVTITRDTSASTAYMELSSLRSEDTAVYYCGRDAYGRYFYDVWGQGTLVTVSS VL: DIVMTQSPDSLAVSLGERATINCKSSQSLLNARTGKNYLAWYQQKPGQPPKLLIYWASTRESGVPDRFSGSGSGTDFTLTISSLQAEDVAVYYCKQSYSLRTFGGGTKVEIK |  |  | binds | binds |  |  |
| Antibody No. V017 (ADI-76360) IgG1 (antibody, V domains shown) VH: QVQLVQSGAEVKKPGASVKVSCKASGFNIKDYYMHWVRQAPGQRLEWMGWIDLENADTIYDAKFQGRVTITRDTSASTAYMELSSLRSEDTAVYYCGRDAYGRYFYDVWGQGTLVTVSS VL: DIVMTQSPDSLAVSLGERATINCKSSQSLLNARTGKNYLAWYQQKPGQPPKLLIYWASTRESGVPDRFSGSGSGTDFTLTISSLQAEDVAVYYCKQSYSLRTFGGGTKVEIK |  |  | binds | binds |  |  |
| Antibody No. V018 (ADI-76361) IgG1 (antibody, V domains shown) VH: QVQLVQSGAEVKKPGASVKVSCKASGFDIKDYYMHWVRQAPGQRLEWMGWIDLEEGNTIYDAKFQGRVTITRDTSASTAYMELSSLRSEDTAVYYCARDAYGRYFYDVWGQGTLVTVSS VL: DIVMTQSPDSLAVSLGERATINCKSSQSLLNARTGKNYLAWYQQKPGQPPKLLIYWASTRESGVPDRFSGSGSGTDFTLTISSLQAEDVAVYYCKQSYSLRTFGGGTKVEIK |  |  | binds | binds |  |  |
| Antibody No. V019 (ADI-76362) IgG1 (antibody, V domains shown) VH: QVQLVQSGAEVKKPGASVKVSCKASGFNIKDYYMHWVRQAPGQRLEWMGWIDLEEGDTIYDAKFQGRVTITRDTSASTAYMELSSLRSEDTAVYYCARDAYGRYFYDVWGQGTLVTVSS VL: DIVMTQSPDSLAVSLGERATINCKSSQSLLNARTGKNYLAWYQQKPGQPPKLLIYWASTRESGVPDRFSGSGSGTDFTLTISSLQAEDVAVYYCKQSYSLRTFGGGTKVEIK |  |  | binds | binds |  |  |
